From the supplement of paper PMC6411743
± gives the standard deviation of the averaged measurements. The list shows a part of the results, in another mix than the full data. Small differences around the control level are noise.

Protein sequences, listed by entry. Tags and fused reporters are not part of them. Lines headed by an entry give the natural chain unless they say otherwise; changes in a name come on top.
UniProt Q99496: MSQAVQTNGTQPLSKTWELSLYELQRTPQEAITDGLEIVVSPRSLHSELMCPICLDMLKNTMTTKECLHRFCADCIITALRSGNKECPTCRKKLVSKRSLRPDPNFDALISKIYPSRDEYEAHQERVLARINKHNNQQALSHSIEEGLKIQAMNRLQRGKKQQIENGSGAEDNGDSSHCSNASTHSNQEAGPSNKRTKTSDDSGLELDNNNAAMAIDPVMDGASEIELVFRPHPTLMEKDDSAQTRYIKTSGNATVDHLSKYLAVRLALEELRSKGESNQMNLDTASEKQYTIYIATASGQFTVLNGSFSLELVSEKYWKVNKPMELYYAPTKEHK
UniProt Q96T51: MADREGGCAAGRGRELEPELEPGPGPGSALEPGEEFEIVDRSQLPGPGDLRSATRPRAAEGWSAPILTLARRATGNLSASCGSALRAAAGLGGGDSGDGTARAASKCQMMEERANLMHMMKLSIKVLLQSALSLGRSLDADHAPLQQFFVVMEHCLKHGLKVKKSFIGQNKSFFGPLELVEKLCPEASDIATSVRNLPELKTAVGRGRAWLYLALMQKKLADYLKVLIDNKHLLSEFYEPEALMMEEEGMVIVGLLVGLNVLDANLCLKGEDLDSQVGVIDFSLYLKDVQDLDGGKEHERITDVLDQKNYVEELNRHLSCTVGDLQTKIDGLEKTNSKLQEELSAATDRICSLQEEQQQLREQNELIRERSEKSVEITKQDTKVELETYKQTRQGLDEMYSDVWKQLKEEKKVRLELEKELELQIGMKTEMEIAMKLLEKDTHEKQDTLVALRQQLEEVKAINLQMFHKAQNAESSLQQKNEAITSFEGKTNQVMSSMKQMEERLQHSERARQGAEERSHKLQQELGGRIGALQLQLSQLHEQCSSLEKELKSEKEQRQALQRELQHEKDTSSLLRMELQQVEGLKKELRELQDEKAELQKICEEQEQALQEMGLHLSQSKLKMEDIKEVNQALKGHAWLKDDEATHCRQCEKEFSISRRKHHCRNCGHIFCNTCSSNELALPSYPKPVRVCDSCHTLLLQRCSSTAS
UniProt Q9BWF3: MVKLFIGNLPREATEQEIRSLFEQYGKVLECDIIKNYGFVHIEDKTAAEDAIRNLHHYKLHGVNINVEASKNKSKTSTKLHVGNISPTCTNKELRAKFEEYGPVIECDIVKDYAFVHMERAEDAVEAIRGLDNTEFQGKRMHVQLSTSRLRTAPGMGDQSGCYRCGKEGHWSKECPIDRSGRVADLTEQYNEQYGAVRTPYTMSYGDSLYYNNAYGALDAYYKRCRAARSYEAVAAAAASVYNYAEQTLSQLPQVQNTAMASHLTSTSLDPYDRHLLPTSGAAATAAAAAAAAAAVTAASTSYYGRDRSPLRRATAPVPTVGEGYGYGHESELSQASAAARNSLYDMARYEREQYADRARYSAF
UniProt Q9BQS8: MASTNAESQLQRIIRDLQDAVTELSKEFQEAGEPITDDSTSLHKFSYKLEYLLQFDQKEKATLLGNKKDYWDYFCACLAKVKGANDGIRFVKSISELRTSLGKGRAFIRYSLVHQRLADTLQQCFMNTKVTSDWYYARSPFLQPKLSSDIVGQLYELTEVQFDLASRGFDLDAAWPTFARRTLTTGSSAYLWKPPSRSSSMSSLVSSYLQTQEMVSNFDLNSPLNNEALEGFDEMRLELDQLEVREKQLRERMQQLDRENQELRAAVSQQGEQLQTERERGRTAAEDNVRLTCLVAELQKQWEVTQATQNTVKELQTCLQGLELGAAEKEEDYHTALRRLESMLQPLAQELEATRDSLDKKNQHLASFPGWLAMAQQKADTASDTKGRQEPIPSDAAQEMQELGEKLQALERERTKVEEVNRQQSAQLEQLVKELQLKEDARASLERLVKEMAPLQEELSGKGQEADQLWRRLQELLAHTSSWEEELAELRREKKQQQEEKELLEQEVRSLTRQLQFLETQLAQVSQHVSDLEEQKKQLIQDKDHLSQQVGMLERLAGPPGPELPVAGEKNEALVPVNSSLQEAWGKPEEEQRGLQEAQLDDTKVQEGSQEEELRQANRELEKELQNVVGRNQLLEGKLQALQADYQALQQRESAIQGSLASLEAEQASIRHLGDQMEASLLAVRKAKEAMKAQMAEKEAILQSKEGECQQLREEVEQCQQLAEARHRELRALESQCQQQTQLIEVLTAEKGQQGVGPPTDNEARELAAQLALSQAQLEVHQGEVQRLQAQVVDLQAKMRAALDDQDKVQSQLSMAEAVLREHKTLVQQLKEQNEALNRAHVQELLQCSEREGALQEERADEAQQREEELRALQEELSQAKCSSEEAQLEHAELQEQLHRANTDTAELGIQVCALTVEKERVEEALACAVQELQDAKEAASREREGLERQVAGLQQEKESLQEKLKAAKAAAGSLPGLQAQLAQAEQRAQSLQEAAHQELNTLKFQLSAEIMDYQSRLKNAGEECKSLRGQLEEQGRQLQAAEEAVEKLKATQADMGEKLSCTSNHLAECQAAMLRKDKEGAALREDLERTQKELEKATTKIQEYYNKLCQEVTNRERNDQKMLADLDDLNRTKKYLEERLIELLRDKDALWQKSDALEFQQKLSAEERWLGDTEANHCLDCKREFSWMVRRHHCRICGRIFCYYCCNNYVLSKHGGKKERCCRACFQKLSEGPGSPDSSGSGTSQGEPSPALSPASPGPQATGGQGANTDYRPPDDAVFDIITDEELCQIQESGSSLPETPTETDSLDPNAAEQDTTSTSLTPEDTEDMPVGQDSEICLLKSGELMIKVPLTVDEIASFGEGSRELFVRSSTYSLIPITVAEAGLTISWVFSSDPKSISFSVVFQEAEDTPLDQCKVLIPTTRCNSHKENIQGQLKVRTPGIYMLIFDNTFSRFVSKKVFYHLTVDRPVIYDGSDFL
UniProt Q9BQA1, whole entry: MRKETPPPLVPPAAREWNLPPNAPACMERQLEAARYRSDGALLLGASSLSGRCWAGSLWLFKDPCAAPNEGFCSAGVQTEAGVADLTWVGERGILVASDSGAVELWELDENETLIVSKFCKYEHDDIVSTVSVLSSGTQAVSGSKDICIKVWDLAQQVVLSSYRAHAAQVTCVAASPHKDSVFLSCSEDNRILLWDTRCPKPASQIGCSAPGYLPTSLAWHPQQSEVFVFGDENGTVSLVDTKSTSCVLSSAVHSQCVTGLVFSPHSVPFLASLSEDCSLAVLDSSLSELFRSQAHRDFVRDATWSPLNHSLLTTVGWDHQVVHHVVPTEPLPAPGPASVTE
UniProt Q9BUL5: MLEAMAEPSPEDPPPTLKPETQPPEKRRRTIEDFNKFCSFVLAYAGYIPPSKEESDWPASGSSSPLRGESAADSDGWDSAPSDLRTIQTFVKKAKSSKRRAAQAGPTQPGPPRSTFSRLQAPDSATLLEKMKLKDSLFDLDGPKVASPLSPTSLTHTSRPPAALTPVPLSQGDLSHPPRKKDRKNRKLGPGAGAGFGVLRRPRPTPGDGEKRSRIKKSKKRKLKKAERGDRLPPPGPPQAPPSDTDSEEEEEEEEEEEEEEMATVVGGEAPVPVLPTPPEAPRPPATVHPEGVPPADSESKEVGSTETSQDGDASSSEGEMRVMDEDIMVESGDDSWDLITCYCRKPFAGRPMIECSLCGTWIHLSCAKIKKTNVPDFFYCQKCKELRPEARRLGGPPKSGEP
UniProt Q9BV86: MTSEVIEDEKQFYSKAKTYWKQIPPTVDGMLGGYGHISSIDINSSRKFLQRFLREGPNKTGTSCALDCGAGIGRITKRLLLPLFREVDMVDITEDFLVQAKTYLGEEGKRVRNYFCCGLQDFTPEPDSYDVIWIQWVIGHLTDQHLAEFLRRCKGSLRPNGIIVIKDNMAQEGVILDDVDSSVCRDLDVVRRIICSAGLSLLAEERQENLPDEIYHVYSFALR
UniProt Q9BYT8, whole entry, looked up: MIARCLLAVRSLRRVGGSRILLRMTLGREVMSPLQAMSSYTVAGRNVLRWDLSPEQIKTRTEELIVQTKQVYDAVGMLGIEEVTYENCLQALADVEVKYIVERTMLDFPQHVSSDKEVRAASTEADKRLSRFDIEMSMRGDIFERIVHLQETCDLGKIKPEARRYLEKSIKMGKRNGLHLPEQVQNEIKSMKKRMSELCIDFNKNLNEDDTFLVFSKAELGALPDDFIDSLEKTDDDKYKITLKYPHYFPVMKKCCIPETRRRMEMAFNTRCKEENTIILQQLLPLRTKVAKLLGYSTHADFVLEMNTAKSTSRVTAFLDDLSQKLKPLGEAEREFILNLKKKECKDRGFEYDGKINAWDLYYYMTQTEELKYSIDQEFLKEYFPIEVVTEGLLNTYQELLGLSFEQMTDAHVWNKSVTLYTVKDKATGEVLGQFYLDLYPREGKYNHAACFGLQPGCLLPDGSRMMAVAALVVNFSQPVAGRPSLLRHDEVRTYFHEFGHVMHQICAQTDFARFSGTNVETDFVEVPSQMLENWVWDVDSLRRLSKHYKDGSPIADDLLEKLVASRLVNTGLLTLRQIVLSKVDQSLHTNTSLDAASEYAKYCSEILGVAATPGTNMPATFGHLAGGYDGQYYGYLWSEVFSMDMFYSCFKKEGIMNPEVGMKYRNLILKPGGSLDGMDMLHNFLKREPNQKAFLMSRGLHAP
UniProt Q9BSJ8: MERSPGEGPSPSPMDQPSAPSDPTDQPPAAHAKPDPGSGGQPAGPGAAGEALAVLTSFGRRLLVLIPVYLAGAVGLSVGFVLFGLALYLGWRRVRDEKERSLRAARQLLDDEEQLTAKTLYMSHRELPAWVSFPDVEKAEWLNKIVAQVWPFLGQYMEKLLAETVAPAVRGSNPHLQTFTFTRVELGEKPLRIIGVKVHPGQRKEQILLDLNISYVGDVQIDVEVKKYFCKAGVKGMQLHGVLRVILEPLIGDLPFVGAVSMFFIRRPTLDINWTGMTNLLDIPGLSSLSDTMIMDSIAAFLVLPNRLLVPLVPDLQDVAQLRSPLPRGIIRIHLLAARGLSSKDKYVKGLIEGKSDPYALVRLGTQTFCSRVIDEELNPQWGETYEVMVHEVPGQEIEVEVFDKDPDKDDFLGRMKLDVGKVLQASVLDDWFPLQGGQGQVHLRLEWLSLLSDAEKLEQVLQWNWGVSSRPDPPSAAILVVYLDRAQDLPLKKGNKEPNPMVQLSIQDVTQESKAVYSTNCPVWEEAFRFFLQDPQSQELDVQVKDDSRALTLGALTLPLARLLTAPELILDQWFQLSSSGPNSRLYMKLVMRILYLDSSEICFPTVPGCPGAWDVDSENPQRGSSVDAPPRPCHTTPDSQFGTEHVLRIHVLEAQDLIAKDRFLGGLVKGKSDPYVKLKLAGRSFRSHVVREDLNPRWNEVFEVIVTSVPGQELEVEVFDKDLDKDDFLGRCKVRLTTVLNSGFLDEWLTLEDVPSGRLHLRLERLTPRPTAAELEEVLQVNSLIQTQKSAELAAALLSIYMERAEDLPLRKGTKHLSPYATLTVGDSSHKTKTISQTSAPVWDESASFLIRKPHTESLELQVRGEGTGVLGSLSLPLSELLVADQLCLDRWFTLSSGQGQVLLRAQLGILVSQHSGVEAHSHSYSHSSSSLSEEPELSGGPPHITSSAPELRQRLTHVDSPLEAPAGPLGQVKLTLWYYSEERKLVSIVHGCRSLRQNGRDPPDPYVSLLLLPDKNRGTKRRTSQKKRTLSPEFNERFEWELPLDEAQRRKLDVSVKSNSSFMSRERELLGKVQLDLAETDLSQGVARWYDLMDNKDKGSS
UniProt Q99633: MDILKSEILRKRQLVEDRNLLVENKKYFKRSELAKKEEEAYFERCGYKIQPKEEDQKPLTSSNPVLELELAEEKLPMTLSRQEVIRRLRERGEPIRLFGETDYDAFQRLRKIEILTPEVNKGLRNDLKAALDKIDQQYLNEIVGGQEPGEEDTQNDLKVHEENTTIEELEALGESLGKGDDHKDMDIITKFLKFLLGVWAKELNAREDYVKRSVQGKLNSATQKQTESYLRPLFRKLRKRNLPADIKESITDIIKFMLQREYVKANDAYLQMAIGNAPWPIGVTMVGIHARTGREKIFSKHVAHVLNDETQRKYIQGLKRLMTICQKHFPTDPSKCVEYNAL
UniProt Q9BUE6: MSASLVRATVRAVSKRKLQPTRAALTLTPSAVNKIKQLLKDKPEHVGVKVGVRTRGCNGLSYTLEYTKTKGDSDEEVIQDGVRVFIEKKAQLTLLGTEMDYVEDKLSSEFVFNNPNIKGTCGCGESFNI
UniProt Q99766: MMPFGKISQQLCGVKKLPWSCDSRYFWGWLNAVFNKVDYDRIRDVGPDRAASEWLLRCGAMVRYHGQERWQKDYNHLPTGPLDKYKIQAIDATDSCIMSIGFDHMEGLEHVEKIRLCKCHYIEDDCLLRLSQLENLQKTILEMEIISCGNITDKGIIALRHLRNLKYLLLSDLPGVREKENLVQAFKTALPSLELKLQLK
UniProt Q9BTE1, whole entry: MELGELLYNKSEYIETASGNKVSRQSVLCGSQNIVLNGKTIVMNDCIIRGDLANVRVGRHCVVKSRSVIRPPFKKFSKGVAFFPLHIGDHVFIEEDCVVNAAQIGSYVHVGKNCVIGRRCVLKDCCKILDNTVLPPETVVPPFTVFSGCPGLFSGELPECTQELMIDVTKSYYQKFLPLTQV

Each target was assayed with Nc1ncnc2c1ncn2[C@@H]1O[C@H](COP(=O)(O)OP(=O)(O)NP(=O)(O)O)[C@@H](O)[C@H]1O [adenylyl imidodiphosphate] (assay: NP40-soluble protein abundance relative to vehicle (solubility fold change) (ratio); higher = more soluble protein in presence of AMP-PNP). Settings: concentration: 0.1mM.
Summary of the method: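 Values are fold changes against the detergent-processed vehicle, based on vsn-normalised intensities. Jurkat crude lysate was treated at eight concentrations from 0.1 to 10 mM (10 min at room temperature, then 3 min at 37 °C), solubilised with 0.8% NP40 and benzonase, ultracentrifuged and analysed by TMT-labelled LC-MS/MS over three independent experiments.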
Work on RNF2 (UniProt Q99496) yielded an NP40-soluble protein abundance of 1.02 ± 0.031.
TRIM56 (UniProt Q9BRZ2) showed an NP40-soluble protein abundance of 0.979 ± 0.021.
Target UniProt Q96RU2-2 has an NP40-soluble protein abundance of 0.981 ± 0.032.
UniProt Q96T51 and related entries gave an NP40-soluble protein abundance of 0.996 ± 0.05.
Target MRPL9 (UniProt Q9BYD2) has an NP40-soluble protein abundance of 1.11 ± 0.014.
For UniProt Q9BWF3 and related entries, the NP40-soluble protein abundance was 1 ± 0.026.
CDC5L (UniProt Q99459) gave an NP40-soluble protein abundance of 1.01 ± 0.033.
UniProt Q9BQS8 and related entries was tested, and the NP40-soluble protein abundance was 0.977 ± 0.054.
In the case of UniProt Q9BTC8 and related entries, the NP40-soluble protein abundance is reported as 1.01 ± 0.041.
For WDR77 (UniProt Q9BQA1), the NP40-soluble protein abundance was 1.01 ± 0.032.

Same assay, conditions: concentration: 0.5mM
With UniProt Q9BRX8 and related entries the NP40-soluble protein abundance was 0.981 ± 0.085.
With UniProt Q9BUL5 and related entries the NP40-soluble protein abundance was 1.01 ± 0.057.
With UniProt Q9BV86 the NP40-soluble protein abundance was 0.984 ± 0.064.
With NLN (UniProt Q9BYT8) the NP40-soluble protein abundance was 0.985 ± 0.094.
For UniProt Q9BSJ8 and related entries, the NP40-soluble protein abundance was 0.977 ± 0.055.
In the case of PRPF18 (UniProt Q99633), the NP40-soluble protein abundance is reported as 1 ± 0.018.
UniProt Q9BUE6 and related entries gave an NP40-soluble protein abundance of 1.01 ± 0.02.
Target UniProt Q9BZ67-2 has an NP40-soluble protein abundance of 0.999 ± 0.028.
Work on UniProt Q9BTY7 yielded an NP40-soluble protein abundance of 0.979 ± 0.05.
Work on MND1 (UniProt Q9BWT6) yielded an NP40-soluble protein abundance of 0.986 ± 0.07.
Target SMAD5 (UniProt Q99717) has an NP40-soluble protein abundance of 1.01 ± 0.026.
In the case of UniProt Q9BZ95 and related entries, the NP40-soluble protein abundance is reported as 1.02 ± 0.05.
UniProt Q9BU02 and related entries gave an NP40-soluble protein abundance of 1.02 ± 0.058.
Target UniProt Q99766 has an NP40-soluble protein abundance of 0.989 ± 0.021.
For DCTN5 (UniProt Q9BTE1), the NP40-soluble protein abundance was 0.993 ± 0.028.
Target UniProt Q9BU76 and related entries has an NP40-soluble protein abundance of 0.996 ± 0.032.
Target MIPEP (UniProt Q99797) has an NP40-soluble protein abundance of 0.984 ± 0.054.
